## Results from one PubChem assay

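Genome-wide siRNA knockdown in TC32 Ewing sarcoma cells, comparing luciferase light from an NR0B1-promoter reporter with a CMV-promoter reporter 48 hours after transfection.
Each siRNA was applied at 20 nM.
A z-score of the log NR0B1-over-CMV signal, less the median of siRNAs with the same seed; more negative means a stronger specific loss of the NR0B1 reporter.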

This is part of the screen; most of the strongest results are not listed here.
Sequences are the guide (antisense) strand, without overhang.

Sequence | gene | seed-corrected z-score
UAAAGCUUGAGGUAAAGGC | DISC1 | 0.3535
UUCGUGGAAAACGAGAGCC | KCNK2 | -0.3317
UUUGGGUUGACUUGCUUCC | PI4KAP2 | 1.368
UGUAUUGCGAGUAUGGUUC | NR1H4 | 0.8541
AGUAGUAGGAUCUCAUUCC | TMEM14DP | 1.385
UCGCUGAAGAUGUAUGCCC | EEF2KMT | -0.6424
ACACGGACAAUGCUGUUGC | LRRN2 | -0.4778
UUGUUGUUUACUGACAGCC | CCNF | 0.2674
UCCAUGGGCACAUAGAUGU | NLGN4Y | -0.2964
UAGGAUGUGGUCAUGAACC | OR1D4 | -0.9308
UCUGCAAUCAUUCGGUUGG | KIF6 | 0.09645
UAACGUAAGGCAUAAUCAC | SPTY2D1 | 0.439
AAAUGGAUCACUGCGCCUG | DNAAF5 | 0.01322
UUGCGGAAGAGCUUUAGGC | GCFC2 | 0.02235
AAUGAUAUGAGUGUAGUUC | CLEC6A | 0.09039
UUCAUAAUAGUAGCGGUCG | TSHZ1 | 0.5346
AAUUGGGUGGUCUCUAGGC | SDR39U1 | 0.6091
UUUUUGCAUAGUUAUCUGU | PIGP | 1.038
UUCAGUGUCAUAGUAUGCG | EIF3FP3 | 0.9626
UAUAUGAGCUCUGCGAUUC | MACROD2 | 0.3901
UGAGCAUCGAGCUUUGCCU | TEX37 | 0.1071
UACACUGUACAAGCGAUGA | ALG1L6P | 0.1959
UUCUGAGCUUCGAUGUGUG | PDLIM7 | 2.257
ACAGUUCUUGGUGAUGAUG | WNT8A | 0.8314
UCAGUGGUGCAUUCGUAGC | CRYGB | -0.02338
UUCAGAUCUGUGGAGAGCU | AGAP3 | -0.3216
UAAUUGUCUCUUGCAGACC | LEF1 | -0.8186
UCUGUACUUAGGACCUUCC | HPS6 | 0.4829
UACCUGACAAAGUCGCCGU | CAPN15 | -0.3759
UUGCUAUUCAUCUUGGUUC | HRH4 | -0.1465
UAUUUGCGGAGUAUUGAGG | NMNAT2 | -0.6932
UCCGUGUUCUGGAUGAUGC | ARHGEF18 | -0.1318
UUCUCCAUCUGGACCAAGG | FLCN | 0.4953
UUUCAAUCCAUUUAAGCCU | COL4A3 | -0.2474
UAGCUUGAGAUUUAGACUG | TCF20 | -0.6158
UCUGUCUCUACAGUUGUGC | CIDEC | 1.713
UCGAUGUACAUGGAGUUGG | LCP2 | 0.226
UUUACUUUAUCUGGAGUUU | CTSH | -1.047
AGUCUUUCAAAUGCAGAUG | OR2M4 | -1.606
UACGCAAUCCAGUUCUCUC | LRRC75A-AS1 | 0.2493
AACAUGACGAAUAACACCU | TRPM3 | -0.6579
AACGACAUAAUUGGAAUCC | SI | 0.1704
UACGCUGUACUUGCCUUCC | CDHR1 | 0.01984
AUCAAGACGAGUCUGGUUG | INHBC | -1.667
AUAGUUACCACAAUAAGUA | OR4C6 | 0.9796
AAAGUAAUCAAUGAGGUUU | TOR1B | 0.4803
AUCAUAGCUAGGUCCGUGC | TC2N | -1.077
UGUUCGAAUAGAGGAAGGG | POLDIP3 | 0.2898
UGAGCGAAUGGACAGGUCU | STAT6 | 0.02817
UUCCAUGUCAUUAGGGACC | LRRC36 | -0.4236
AACGAUUCAUGAGUAAGUC | EXOC2 | 0.5045
AAAUACUAGAGUUAAACAC | HS3ST3B1 | -1.087
UCCCGAGAAGGUUCUCCAC | HEXDC | -0.2225
UAUUCACCCAAGGACAGUG | ZDHHC20 | -0.2507
AACCGAAUAAGAAAAGUCC | NLRP8 | -0.2987
AAUAGGAGUAGGAAUAAGC | PTPRT | -1.031
UUCCUUCGCCUAAAGGUGC | SENP6 | 0.1765
UUGGAGACAGGCUUAUUGC | C10orf71 | -0.1665
AGCAUAAUAACCACAAUGG | TLR10 | 0.1128
UUUUUGAAGCCGGUCACCU | SNX18 | 0.6547
AAAAUCACAAUGAUGUUGC | GPR21 | -0.2912
UGUAUGAUGGGAAUCUACG | BSG | 0.4163
UGCUUUUAUGUCAAGGGUG | C19orf48 | -0.9306
AAAGUACCAACAGCUCUCC | TAAR9 | -0.01881
UGAGGAUCUGGACUGUAUC | CBFA2T2 | -0.5225
AAUGGUAUUCUUCAUUAGC | MTHFD2 | 0.1859
UUCUUAUCAAGUUGUAGGC | PIK3C2A | 0.08227
UUCCGUUCAGAGUUGAUUC | CBL | -0.2465
UGAUGUUUCUAUAAGGUGG | TMEM9 | 0.05742
AUACCGAACAAGAUCAGGC | ANKRD12 | 0.2319
UCUGAUACAGAAAAUGCCC | SGMS2 | -0.8484
UCAGCAACGAUUGAGAUUG | ATP5J2 | -0.06993
UUGGACUUAAGUAAUGAAG | EDDM3A | 0.2646
AACGAAACUCUUGCAGAUC | SPINT1 | -0.3858
UUUACAAGCAUGUUGGGUG | OR5P2 | -0.3773
AUCCUGGUCAUAUAUCUCC | PRDM6 | -0.8335
UAACUAGUGGAUUCCGUGC | PRR11 | 0.135
AUGGGUGUCGUGUCAGAGG | TMEM72 | -0.175
UAAAUGACCAUUUGCUCUC | CCDC122 | -0.07832
UUUGCUCUGAGGAUUAUAC | CXXC1 | 0.2788
UCUGGUAUGAGGUCAGCAG | RASGRP4 | -0.5013

The last 7 entries again:

- UUUACAAGCAUGUUGGGUG against OR5P2 | seed-corrected z-score -0.3773
- AUCCUGGUCAUAUAUCUCC against PRDM6 | seed-corrected z-score -0.8335
- UAACUAGUGGAUUCCGUGC against PRR11 | seed-corrected z-score 0.135
- AUGGGUGUCGUGUCAGAGG against TMEM72 | seed-corrected z-score -0.175
- UAAAUGACCAUUUGCUCUC against CCDC122 | seed-corrected z-score -0.07832
- UUUGCUCUGAGGAUUAUAC against CXXC1 | seed-corrected z-score 0.2788
- UCUGGUAUGAGGUCAGCAG against RASGRP4 | seed-corrected z-score -0.5013

The results are deposited in PubChem (AID1159506; NCATS, 2015).